Data from PMC6753678, “Fueling Open Innovation for Malaria Transmission-Blocking Drugs: Hundreds of Molecules Targeting Early Parasite Mosquito Stages” (Frontiers in Microbiology, 2019).

Test system: P. berghei ookinete development
[1] = unified cytotox / IC50, <10-fold red, >10-fold green

Compound	Assay tox ratio Pb ODA (red: <10-fold selectivity; green: >10-fold)	Assay tox ratio Pb ODA [1]	further results
COc1cc(Nc2ncc3c(C)nc(-c4cccc(Nc5ccc(CN6CCS(=O)(=O)CC6)cc5)c4)n3n2)cc(OC)c1OC [TCMDC-136003]	–	–	Assay tox ratio Pb ODA: 176.19
Cc1noc(C)c1-c1ccc2c(Nc3ccc(Cl)cc3)c(C(N)=O)cnc2c1.Cl [TCMDC-136010]	0.73	–	–
Cc1[nH]c(C)c(-c2ccc(-c3ccc(C(F)(F)F)cc3C(F)(F)F)nc2)c(=O)c1Br [TCMDC-136013]	–	39.99	–
Cc1[nH]c(C)c(-c2ccc(CCc3cccc(C(F)(F)F)c3)nc2)c(=O)c1Cl [TCMDC-136014]	–	57.71	–
Cc1[nH]c(C)c(-c2ccc(-c3cc(C(F)(F)F)cc(C(F)(F)F)c3)nc2)c(=O)c1Br [TCMDC-136015]	–	11.74	–
Cc1[nH]c(C)c(-c2ccc(-c3ccc(OC(F)(F)F)cc3)nc2)c(=O)c1Br [TCMDC-136016]	–	224.27	–
Cc1[nH]c(C)c(-c2csc3ccccc23)c(=O)c1Cl [TCMDC-136017]	–	–	Assay tox ratio Pb ODA: 54.23
Cc1noc(C)c1-c1ccc2c(Nc3ccc(C(F)(F)F)cc3)c(C(N)=O)cnc2c1.Cl [TCMDC-136019]	8.97	–	–
Cc1nc2c(c([O-])c1Cl)-c1ccc(Oc3cccc(C(F)(F)F)c3)cc1C2=O.[Na+] [TCMDC-136021]	–	–	Assay tox ratio Pb ODA: 50.72
Cc1noc(C)c1-c1ccc2c(Nc3ccc(C#N)cc3)c(C(N)=O)cnc2c1 [TCMDC-136029]	18.07	–	–
Cc1[nH]c(C)c(-c2ccc(CCc3ccc(C(F)(F)F)cc3)nc2)c(=O)c1Cl [TCMDC-136051]	–	395.77	–
Cc1[nH]c(C)c(-c2ccc(-c3ccc(OC(F)(F)F)cc3)cc2)c(=O)c1Cl [TCMDC-136060]	–	1199.36	–
COc1ccc(Oc2ccc(-c3c(C)[nH]c(C)c(Cl)c3=O)cc2)cc1 [TCMDC-136134]	–	237.00	–
Cc1[nH]c(C)c(-c2ccc(-c3ccccc3Cl)nc2)c(=O)c1Br [TCMDC-136157]	–	0.33	–
Cc1[nH]c(C)c(-c2ccc(-c3ccc(Cl)cc3)nc2)c(=O)c1Br [TCMDC-136159]	–	106.34	–
Cc1[nH]c(C)c(-c2ccc(-c3cccc(Cl)c3)nc2)c(=O)c1Br [TCMDC-136160]	–	47.77	–
Cc1[nH]c(C)c(-c2ccc(-c3ccc4c(c3)OCO4)nc2)c(=O)c1Br [TCMDC-136161]	–	69.74	–
CCCCN(C)CC#Cc1ccc2[nH]c(C)c(Cl)c(=O)c2c1 [TCMDC-136185]	–	–	Assay tox ratio Pb ODA: 14.93
Cc1[nH]c2ccc(-c3ccc(N(C)C)cc3)cc2c(=O)c1Cl [TCMDC-136188]	–	–	Assay tox ratio Pb ODA: 182.70
Cc1[nH]cc(Br)c(=O)c1-c1ccc(Oc2ccccc2)cc1 [TCMDC-136196]	–	270.71	–
COc1ccc2ncc(F)c(CCN3CC[C@H](NCc4cc(C#N)c5c(c4)OCCO5)[C@H](O)C3)c2c1 [TCMDC-136207]	–	–	Assay tox ratio Pb ODA: 50.89
COc1ccc2ncc(F)c(CCN3CCC(NCc4cc(C)c5c(c4)OCCO5)CC3)c2n1.Cl [TCMDC-136209]	12.28	–	–
COc1ccc2ncc(F)c(CCN3CCC(NCc4cc(Br)c5c(c4)OCCO5)CC3)c2n1.Cl [TCMDC-136211]	4.26	–	–
CCCCN(C)CC#Cc1ccc(-c2ccc3[nH]c(C)c(Br)c(=O)c3c2)cn1 [TCMDC-136285]	–	–	Assay tox ratio Pb ODA: 97.68
Cc1[nH]c(C)c(-c2ccc(-c3cccc(OC(F)(F)F)c3)nc2)c(=O)c1Cl [TCMDC-136286]	–	28.10	–

Compound	Assay tox ratio Pb ODA (red: <10-fold selectivity; green: >10-fold)	Assay tox ratio Pb ODA [1]	further results
Cc1[nH]c(C)c(-c2ccc(-c3cccc(Cl)c3)nc2)c(=O)c1Cl [TCMDC-136300]	–	83.30	–
Cc1[nH]c(C)c(-c2ccc(-c3ccc(Cl)cc3)nc2)c(=O)c1Cl [TCMDC-136301]	–	103.86	–
Cc1[nH]c(C)c(-c2ccc(-c3ccccc3Cl)nc2)c(=O)c1Cl [TCMDC-136303]	–	437.25	–
COc1ccc2ncc(F)c(NC(=O)C3CCC(NCc4cc5c(F)cccc5[nH]4)CC3)c2n1.Cl (stereo not drawn) [TCMDC-136354]	14.39	–	–
COc1ccc2ncc(F)c(NC(=O)C3CCC(NCc4cc5cc(F)cc(F)c5[nH]4)CC3)c2n1.Cl (stereo not drawn) [TCMDC-136455]	15.25	–	–
CN1CCN(CC(=O)Nc2ccc(-c3ccc(-c4nc5ccccc5[nH]4)cc3)cc2)CC1 [TCMDC-136979]	–	–	Assay tox ratio Pb ODA: 5.16
Cc1cc(=O)c2cc(-c3ccc(OC(F)(F)F)cc3)ccc2[nH]1 [TCMDC-137042]	–	–	Assay tox ratio Pb ODA: 15.66
Cl.c1ccc(Oc2ccc(Nc3nncc4ccccc34)cc2)cc1 [TCMDC-137229]	–	–	Assay tox ratio Pb ODA: 144.57
Cc1c(Cc2ccccc2Br)cnc2nc(N)nc(N)c12.Cl [TCMDC-137244]	0.000914	–	–
Cc1cc(=O)c(-c2ccc(Oc3cccc(Cl)c3)cc2)c(C)[nH]1 [TCMDC-137265]	–	2.91	–
Cc1cc(=O)c(-c2ccc(Oc3cccc(OC(F)(F)F)c3)cc2)c(C)[nH]1 [TCMDC-137266]	52.30	–	–
CCCCCCCCCc1c(C)[nH]c2ccccc2c1=O [TCMDC-137268]	175.28	–	–
CCC(CC)n1c(C)cc2c3c(N)nc(N)nc3ccc21 [TCMDC-137283]	–	0.00201	–
CCN(CC)S(=O)(=O)n1ncc2c3c(N)nc(N)nc3ccc21.Cl [TCMDC-137302]	0.0266	–	–
CCc1cc2c3c(N)nc(N)nc3ccc2n1C(C)(C)C [TCMDC-137306]	–	0.00157	–
CCc1cc2c3c(N)nc(N)nc3ccc2n1C(C)CC (stereo not drawn) [TCMDC-137308]	–	0.00245	–
CCCc1cc2c3c(N)nc(N)nc3ccc2n1C(CC)CC [TCMDC-137312]	–	0.00366	–
CCC(CC)n1c(COC)cc2c3c(N)nc(N)nc3ccc21 [TCMDC-137313]	–	0.00126	–
CNCCN(C)C(=O)Oc1c(Br)c(C)nc(C)c1-c1ccc(Oc2ccc(OC(F)(F)F)cc2)cc1.Cl [TCMDC-137377]	5.62	–	–
Cc1[nH]c(C)c(-c2ccc(Oc3ccc(Cl)cc3)cc2)c(=O)c1C [TCMDC-137378]	–	13.54	–
Cc1nc(C)c(-c2ccc(Oc3ccc(OC(F)(F)F)cc3)cc2)c(OC(=O)c2ccccc2)c1Cl [TCMDC-137380]	43.71	–	–
CC(=O)Oc1c(Cl)c(C)nc(C)c1-c1ccc(Oc2ccc(Cl)cc2)cc1 [TCMDC-137381]	26.92	–	–
Cc1nc(C)c(-c2ccc(Oc3ccc(OC(F)(F)F)cc3)cc2)c(OC(=O)c2ccc(CN(C)C)cc2)c1Cl [TCMDC-137382]	53.17	–	–
CC(=O)Oc1c(Br)c(C)nc(C)c1-c1ccc(Oc2ccc(OC(F)(F)F)cc2)cc1 [TCMDC-137383]	16.80	–	–
CC(=O)Oc1c(Cl)c(C)nc(C)c1-c1ccc(Oc2ccc(OC(F)(F)F)cc2)cc1 [TCMDC-137385]	31.26	–	–

Compound	Assay tox ratio Pb ODA (red: <10-fold selectivity; green: >10-fold)	Assay tox ratio Pb ODA [1]	further results
Cc1nc(C)c(-c2ccc(Oc3cc(Cl)cc(Cl)c3)cc2)c(O)c1Br [TCMDC-137392]	–	44.62	–
Cc1nc(C)c(-c2ccc(Oc3ccc(Cl)c(Cl)c3)cc2)c(O)c1Cl [TCMDC-137396]	137.14	–	–
Cc1nc(C)c(-c2ccc(Oc3ccc(Cl)c(Cl)c3)cc2)c(O)c1Br [TCMDC-137397]	–	217.62	–
Cc1[nH]c(C)c(-c2ccc(Oc3ccc(F)cc3)cc2)c(=O)c1Br [TCMDC-137402]	–	67.05	–
Cc1[nH]c(C)c(-c2ccc(Oc3ccc(C(F)(F)F)cc3)cc2)c(=O)c1Br [TCMDC-137406]	–	45.35	–
Cc1[nH]c(C)c(-c2ccc(C(=O)c3ccc(Cl)cc3)cc2)c(=O)c1Br [TCMDC-137407]	575.25	–	–
Cc1[nH]c(C)c(-c2ccc(Oc3ccccc3)cc2)c(=O)c1Br [TCMDC-137410]	–	1025.09	–
Cc1cc(=O)c(-c2cccc(Oc3ccc(Cl)cc3)c2)c(C)[nH]1 [TCMDC-137415]	–	50.26	–
Cc1[nH]c(C)c(-c2ccc(-c3ccc(Cl)cc3)cc2)c(=O)c1Cl [TCMDC-137416]	23.64	–	–
Cc1[nH]c(C)c(C2CCC(c3ccc(Cl)cc3)CC2)c(=O)c1Cl (stereo not drawn) [TCMDC-137423]	–	–	Assay tox ratio Pb ODA: 29.67
CCCCCCCCc1c(C)[nH]c(C)c(C#N)c1=O [TCMDC-137431]	–	–	Assay tox ratio Pb ODA: 75.45
CCCCC1=CC2C(=O)C(C(=O)OC)=CN=C2C=C1OCc1ccccc1 (stereo not drawn) [TCMDC-137492]	–	–	Assay tox ratio Pb ODA: 33.09
CCCCOc1cc2ncc(C(=O)OCC)c(O)c2cc1OCCCC [TCMDC-137523]	–	–	Assay tox ratio Pb ODA: 45.70
Cc1cc(O)c(-c2ccc(Oc3ccc(F)cc3)cc2)c(C)n1 [TCMDC-137535]	–	0.48	–
CCCCCCCCc1c(C)[nH]c(C)c(Cl)c1=O [TCMDC-137538]	–	–	Assay tox ratio Pb ODA: 36.47
CCN1CCN(CCNc2c3ccccc3nc3ccccc23)CC1.Cl [TCMDC-137545]	–	6.60	–
CCN1CCN(CCCNc2c3ccccc3nc3ccccc23)CC1.Cl [TCMDC-137546]	–	2.99	–
CC(C)N1CCN(CCCNc2c3ccccc3nc3ccccc23)CC1.Cl [TCMDC-137547]	–	3.89	–
CCCN1CCN(CCNc2c3ccccc3nc3ccccc23)CC1 [TCMDC-137549]	–	3.70	–
Cl.c1ccc(CN2CCN(CCNc3c4ccccc4nc4ccccc34)CC2)cc1 [TCMDC-137571]	–	8.29	–
CC(C)N1CCN(CCCCNc2c3ccccc3nc3ccccc23)CC1.Cl [TCMDC-137573]	–	1.99	–
CCCN1CCN(CCCCNc2c3ccccc3nc3ccccc23)CC1.Cl [TCMDC-137576]	–	2.31	–
CCOC(=O)N1CCN(CCCCNc2c3ccc(Cl)cc3nc3ccc(OC)cc23)CC1.Cl [TCMDC-137579]	1.22	–	–
COc1ccc2nc3cc(Cl)ccc3c(NCCCN3CCNCC3)c2c1.Cl [TCMDC-137580]	8.82	–	–
Cc1nc2nc(N)nc(N)c2c(C)c1Cc1ccc(N)cc1.Cl [TCMDC-137633]	0.0125	–	–

Like-named read-outs stand apart in the source and are kept apart here.
